According to article PMC3973991:
No constants are given. Whether binding was seen depends on the method and setting. For some assays here: Binding seen in cells or lysates may run through a third protein. Some entries that bind do so weakly or less than the wild type.

Chains of the proteins cited; added tags and fusions are not shown. Residues count along the entry.
UniProt Q63373, residues 47-468: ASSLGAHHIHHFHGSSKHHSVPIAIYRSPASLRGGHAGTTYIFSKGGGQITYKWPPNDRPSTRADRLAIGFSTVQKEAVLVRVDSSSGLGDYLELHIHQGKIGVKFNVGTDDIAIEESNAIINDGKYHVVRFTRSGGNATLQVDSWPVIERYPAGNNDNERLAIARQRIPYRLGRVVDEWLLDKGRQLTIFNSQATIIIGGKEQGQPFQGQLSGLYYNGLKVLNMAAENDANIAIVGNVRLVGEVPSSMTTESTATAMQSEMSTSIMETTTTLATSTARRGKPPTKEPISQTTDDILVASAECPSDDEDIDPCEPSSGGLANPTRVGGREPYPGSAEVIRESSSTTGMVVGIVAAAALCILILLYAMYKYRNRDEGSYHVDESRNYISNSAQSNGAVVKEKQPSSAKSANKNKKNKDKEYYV

T1: human read-through acetylcholinesterase (hAChE-R) (human), P22303
T1 chain: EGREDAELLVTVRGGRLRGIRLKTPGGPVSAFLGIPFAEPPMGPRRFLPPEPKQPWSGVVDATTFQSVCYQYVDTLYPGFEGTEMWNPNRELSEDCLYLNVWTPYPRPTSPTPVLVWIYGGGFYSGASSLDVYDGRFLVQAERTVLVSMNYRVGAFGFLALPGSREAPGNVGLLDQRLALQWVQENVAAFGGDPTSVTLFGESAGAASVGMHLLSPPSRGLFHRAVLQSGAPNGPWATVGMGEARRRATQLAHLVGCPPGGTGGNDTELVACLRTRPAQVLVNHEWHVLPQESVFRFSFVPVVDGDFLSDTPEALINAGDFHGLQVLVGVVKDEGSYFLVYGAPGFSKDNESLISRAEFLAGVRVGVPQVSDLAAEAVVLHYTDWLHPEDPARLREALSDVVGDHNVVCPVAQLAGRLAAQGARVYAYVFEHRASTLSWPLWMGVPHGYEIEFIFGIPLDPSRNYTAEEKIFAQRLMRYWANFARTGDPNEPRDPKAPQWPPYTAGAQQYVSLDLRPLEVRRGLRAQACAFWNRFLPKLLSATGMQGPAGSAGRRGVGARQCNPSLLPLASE

B1: human read-through acetylcholinesterase (hAChE-R), P22303-4 32-603 (enzyme)
chain: EGREDAELLVTVRGGRLRGIRLKTPGGPVSAFLGIPFAEPPMGPRRFLPPEPKQPWSGVVDATTFQSVCYQYVDTLYPGFEGTEMWNPNRELSEDCLYLNVWTPYPRPTSPTPVLVWIYGGGFYSGASSLDVYDGRFLVQAERTVLVSMNYRVGAFGFLALPGSREAPGNVGLLDQRLALQWVQENVAAFGGDPTSVTLFGESAGAASVGMHLLSPPSRGLFHRAVLQSGAPNGPWATVGMGEARRRATQLAHLVGCPPGGTGGNDTELVACLRTRPAQVLVNHEWHVLPQESVFRFSFVPVVDGDFLSDTPEALINAGDFHGLQVLVGVVKDEGSYFLVYGAPGFSKDNESLISRAEFLAGVRVGVPQVSDLAAEAVVLHYTDWLHPEDPARLREALSDVVGDHNVVCPVAQLAGRLAAQGARVYAYVFEHRASTLSWPLWMGVPHGYEIEFIFGIPLDPSRNYTAEEKIFAQRLMRYWANFARTGDPNEPRDPKAPQWPPYTAGAQQYVSLDLRPLEVRRGLRAQACAFWNRFLPKLLSATGMQGPAGSAGRRGVGARQCNPSLLPLASE
modifications: here or on the partner: N-linked glycans (sites not given); N-linked glycans (sites not given)

Key:
[1] = target: human synaptic acetylcholinesterase (hAChE-S) (human) (UniProt P22303); assay: co-IP; lysate of HEK293 cells co-transfected with neurexin-1β-His and hAChE; 1% Triton X-100, 0.5% sodium deoxycholate in PBS; anti-AChE or anti-His 3 h at 4°C; physostigmine 10 μM in all buffers; cells cultured without or with 10 μM physostigmine
[2] = target: T1, human read-through acetylcholinesterase …; assay: immunoblot of a non-reducing gel; lysate or culture medium of transfected HEK293 cells on a 10% gel, loading buffer without reducing agent; anti-AChE; conditions: remark: other sources report otherwise

Row | Molecule | binding [1] | binding [2]
1 | neurexin-1β-3’-His (rat neurexin-1β containing alternatively spliced sequence 4) (from UniProt Q63373 47-468) (receptor) | binds | 
2 | B1 |  | no binding
